In article PMC10761432:
These are yes or no findings as the source states them, for the method shown. Binding seen in cells or lysates may run through a third protein. Some results given as binding are weak or reduced against the parent protein; the word gives no strength.

Amino acid sequences for entries named in this document (tags omitted).
UniProt P09651: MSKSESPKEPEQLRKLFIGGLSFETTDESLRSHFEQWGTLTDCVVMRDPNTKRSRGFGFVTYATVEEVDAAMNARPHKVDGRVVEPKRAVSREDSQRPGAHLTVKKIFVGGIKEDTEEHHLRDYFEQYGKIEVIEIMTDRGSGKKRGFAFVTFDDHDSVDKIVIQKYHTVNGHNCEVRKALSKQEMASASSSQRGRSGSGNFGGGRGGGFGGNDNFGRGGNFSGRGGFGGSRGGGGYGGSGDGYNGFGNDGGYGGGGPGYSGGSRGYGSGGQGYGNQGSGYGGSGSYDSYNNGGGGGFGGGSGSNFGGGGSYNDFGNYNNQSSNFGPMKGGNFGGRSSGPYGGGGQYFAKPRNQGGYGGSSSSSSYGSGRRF
UniProt P19474: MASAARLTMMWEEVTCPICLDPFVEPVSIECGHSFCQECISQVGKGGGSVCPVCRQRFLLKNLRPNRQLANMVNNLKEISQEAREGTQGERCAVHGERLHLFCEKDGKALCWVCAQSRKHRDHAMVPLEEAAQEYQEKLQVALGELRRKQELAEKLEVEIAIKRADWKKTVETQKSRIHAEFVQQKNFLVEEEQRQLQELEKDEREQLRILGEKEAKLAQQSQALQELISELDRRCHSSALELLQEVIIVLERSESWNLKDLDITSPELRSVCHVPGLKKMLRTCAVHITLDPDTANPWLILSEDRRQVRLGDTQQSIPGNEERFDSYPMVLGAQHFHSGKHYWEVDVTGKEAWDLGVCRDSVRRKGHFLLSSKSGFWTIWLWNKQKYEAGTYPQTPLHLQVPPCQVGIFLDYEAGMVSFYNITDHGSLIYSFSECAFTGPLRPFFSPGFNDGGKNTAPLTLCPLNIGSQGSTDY

Target: heterogeneous nuclear ribonucleoprotein A1 (hnRNPA1) (human (endogenous in AGS)) (UniProt P09651)
Assay: co-IP; Pierce Crosslink Magnetic IP/Co-IP Kit; protein A/G magnetic beads pre-bound to anti-HNRNPA1, anti-Trim21 or IgG antibody, incubated with cell lysates overnight at 4 °C; low-pH elution; western blot; AGS cells, also GC cells with OIP5-AS1 silenced (interaction improved) or overexpressed (interaction reduced)

binding: binds
Substance: tripartite motif-containing protein 21 (TRIM21) (from UniProt P19474 1-475)
